PubChem BioAssay AID1508588, Peter MacCallum Cancer Centre – 2020
Here is an unselected part of about 18,000 deposited reagents. 790 of all reagents (4.4%) were called active. 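Calls rest on a combination of fold-change classes in drug and vehicle arms, not all shown here.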 A number with no mark means an inactive call.

Screen: 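Genome-wide search for knock-downs that heighten vemurafenib action in melanoma cells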 (primary screen)
Cells: human WM266.4 melanoma cells (BRAF V600 mutant)
Knock-down reagent: siRNA pool against human genes, 40 nM
Timing: 96 h from transfection to read-out
Challenge: vemurafenib 300 nM (about IC25), added 48 h after transfection, for 48 h; comparison arm got DMSO vehicle only
Measured: 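Cell gain (DAPI nuclei at end minus before drug, mean of two replicates) and medium lactate by absorbance per cell, both as ratio to non-targeting siRNA, also grouped into fold-change classes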
Scale: cell gain with vemurafenib: higher = more cell gain than with non-targeting siRNA; lactate per cell with vemurafenib: higher = more lactate made per cell
Hit rule: 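Enhancement is called by pairing each knock-down's vehicle-arm and drug-arm fold-change classes for viability or glycolysis; which class combinations qualify is not given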
Meaning of the calls: active = enhances vemurafenib effect; inactive = no enhancement seen

Gene,PubChem SID,cell gain with vemurafenib,lactate per cell with vemurafenib
ATAD3B,SID152149441,0.69,0.38
OCIAD2,SID152154769,0.7,0.73
UBIAD1,SID152155392,0.66 (active),0.12
E4F1,SID152150199,0.32,1.72
PCDHA6,SID135622488,0.93,0.86
FBXW10,SID152150042,0.64,1.13
ZNF229,SID152154138,0.09,0.32
INHBB,SID152156622,0.87,1.24
ST3GAL5,SID135622145,0.89,0.99
P2RY6,SID134310535,0.83,0.46
RARS2,SID135622604,0.64,1.37
NEUROG3,SID152153984,0.75,0.96
CCT8,SID135621595,0.15,2.38
ADAMTS2,SID152154737,0.51,0.92
ACD,SID135622701,0.52,1.38
OR1E1,SID152149800,0.56,0.74
RAB7B,SID134322101,0.38,1.42
NDUFA8,SID134316763,0.57,1.9
TUBB6,SID135621687,0.87,1.34
MAGEC1,SID152150670,0.44,1.01
PKP1,SID152147891,-0.01,1.48
IL12A,SID134312864,0.83,0.58
NR2C2AP,SID152148127,0.58,0.67
RSPO1,SID135623470,0.63,1.11
JUP,SID134316029,0.98,0.7
TBCE,SID152148970,0.94,0.72
KLF8,SID152149671,0.72,1.54
TMEM205,SID135625161,0.42,0.86
RAD17,SID56478634,0.61,1.12
MROH2B,SID152151644,0.24,1.99
MMS19,SID152147026,0.77,1.09
BRD4,SID152154839,0.32,0.86
SPATA31A1,SID135625449,1.05,0.79
SPATA31A1,SID135625521,1.16,0.64
PPIB,SID134310550,0.63,0.79
TSLIG3B,SID135623486,0.5,1.52
CC2D1A,SID152153836,0.88,0.68
TDRD5,SID134322359,0.65,0.45
CSF1,SID134321447,0.74,1.07
ADAR,SID135621609,0.95,1.33
NECAB2,SID134322767,0.44,1.58
SLC18A3,SID152151433,0.55,0.57
UCKL1,SID152149527,0.33,1.09
HOMER3,SID134310813,0.64,0.33
KYAT1,SID134313726,0.91,0.85
RIBC1,SID134320983,0.69,0.58
GAR1,SID152146853,0.19,2.03
KNOP1,SID152149415,1.28,0.88
SLC25A25,SID135621357,0.76,0.98
ALDH1A2,SID134313044,0.51,0.54
GPC6,SID134316397,0.19,-0.01
TPP2,SID134311474,1.03,0.62
OR5F1,SID152152192,0.68,1.17
PTGS2,SID134310519,0.72,1.02
CRELD2,SID134315272,0.7,1
KLHL20,SID134310658,0.28,2.16
EIF1AY,SID134316221,0.97,1.18
NFE2L1,SID134323502,0.18,1.24
FCMR,SID134310482,0.35,0.72
PNMA6A,SID134322481,0.9,0.57
NBPF7P,SID152153943,0.64,1.38
KRT72,SID134319315,0.69,0.53
PDS5A,SID135622666,0.69,0.8
CYP7B1,SID134313775,0.76,0.36
PPDPF,SID135622719,0.31,0.88
IFNA8,SID152150562,0.46,0.8
GSTO1,SID134316260,1,0.62
YWHAG,SID152151328,0.16,1.23
CDR2L,SID152151397,1.22,0.36
SSX3,SID134317348,0.41,0.8
TREH,SID135623792,-0.03,1.23
DTD1,SID152147296,0.92,0.48
EIF2AK3,SID152151333,0.91,0.62
CBLN4,SID152154113,0.26,1.17
PHAX,SID135625195,0.39,0.74
RIC8A,SID135623087,0.53,1.34
FGGY,SID135621259,1.01,0.53
COL9A3,SID152155955,0.24,1.88
MRGPRF,SID152154766,0.5,1.4
TAS2R9,SID152153415,0.05,1.84
PURA,SID152153377,0.93,0.88
MOCS3,SID134311775,0.78,0.96
SECTM1,SID135622116,0.67,1.15
CYP4F3,SID152150103,0.93,0.74
STYXL2,SID135624276,0.76,0.76
ACSM2A,SID135624306,0.36,0.67
ZFPM1,SID152156436,0.43,0.34
PRDM13,SID134312163,-0.21,2.48
BTN3A2,SID152147006,0.64,0.77
RBM45,SID152149016,0.94,0.55
VIP,SID134324970,0.89 (active),0.43
MZT1,SID135625309,0.54,1.5
MED7,SID152156171,0.3,0.34
KASH5,SID135623016,0.69,0.57
INKA1,SID134329411,0.31,1.04
STING1,SID134326041,0.3,1.05
MPHOSPH6,SID152149087,0.84,0.92
HUS1B,SID152156059,0.18,1.31
TMEM165,SID134322681,0.26,0.78
AQP6,SID152151301,1.04,0.68
IFT56,SID135622758,0.83,0.75
CYBB,SID152150257,0.29,0.9
INPP4B,SID152154648,0.58 (active),0.48
DMRTC1B,SID135625622,0.04 (active),0.55
DPPA3,SID135624627,0.83,0.24
CNTNAP5,SID134315299,0.6,1.56
ACTR3,SID134316374,-0.04,-0.16
